Measurements reported in PubChem BioAssay AID504764 (Drosophila RNAi Screening Center, 2011).
Test: 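Genes whose knock-down alters Notch-dependent transcription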 (primary screen). System: Drosophila Kc167 cells. Reagents: long dsRNA against Drosophila genes. Duration: about 5 days (4 days dsRNA, then 24 h after transfection). Treatment: transfection of constitutively active membrane-tethered Notch lacking the extracellular domain, read 24 h later. Measurement: 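Firefly luciferase from an E(spl)m3 reporter with active Notch, plus control-promoter and uninduced reporter wells for normalisation; unnormalised counts, duplicate wells a and b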. Scale: induced reporter light, run 1, well a and induced reporter light, run 1, well b: higher = more light from the Notch target reporter with active Notch; control promoter light, run 1, well a and control promoter light, run 1, well b: higher = more light from the viral control promoter (cell number, transfection, viability); uninduced reporter light, run 1, well a: higher = more light from the Notch target reporter without active Notch. Hit rule: 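Wells with low control signal or poorly matching duplicates excluded; duplicates averaged; per source plate, z beyond ±2 for induced/control log2 ratio or beyond ±1.8 for induced/uninduced marks a hit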. Meaning of the calls: active = modifier hit (raised or lowered Notch signal); inactive = not a hit.
The screen tested about 22,000 reagents; this is a random part of those that have a named target and a result. Of all reagents, 403 (1.9%) are marked active. 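Unnormalised raw counts per well; ratio z-scores behind the hit calls and whether each hit raises or lowers signal are not deposited.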 The numbers tell different reagents against one gene apart. Not stated in the record: the amount of reagent.

The first 2 entries as a preview:
| Gene | reagent | induced reporter light, run 1, well a | induced reporter light, run 1, well b | control promoter light, run 1, well a | control promoter light, run 1, well b | uninduced reporter light, run 1, well a | outcome |
| --- | --- | --- | --- | --- | --- | --- | --- |
| Tdh (L-threonine dehydrogenase) | 1 | 1.52e5 | 1.24e5 | 1.15e5 | 1.36e5 | 9528 | inactive |
| CG7573 | 1 | 1.04e5 | 1.04e5 | 1.98e5 | 1.17e5 | 6470 | inactive |

The listing, repeating the preview:
| Gene | reagent | induced reporter light, run 1, well a | induced reporter light, run 1, well b | control promoter light, run 1, well a | control promoter light, run 1, well b | uninduced reporter light, run 1, well a | outcome |
| --- | --- | --- | --- | --- | --- | --- | --- |
| Tdh (L-threonine dehydrogenase) | 1 | 1.52e5 | 1.24e5 | 1.15e5 | 1.36e5 | 9528 | inactive |
| CG7573 | 1 | 1.04e5 | 1.04e5 | 1.98e5 | 1.17e5 | 6470 | inactive |
| fos28F (retired record) | 1 | 1.63e5 | 1.91e5 | 1.19e5 | 1.48e5 | 26610 | inactive |
| Mcm5 (Minichromosome maintenance 5) | 1 | 69135 | 83465 | 76475 | 57065 | 4735 | inactive |
| EMC6 (ER membrane protein complex subunit 6) | 1 | 1.59e5 | 1.82e5 | 2.10e5 | 1.94e5 | 15705 | inactive |
| CCT7 (Chaperonin containing TCP1 subunit 7) | 1 | 30550 | 27845 | 23730 | 23280 | 5038 | inactive |
| chp (chaoptin) | 1 | 1.52e5 | 1.38e5 | 2.07e5 | 2.19e5 | 13355 | inactive |
| CG14377 | 1 | 2.66e5 | 2.42e5 | 2.08e5 | 2.02e5 | 18230 | inactive |
| CG11737 | 1 | 81400 | 92290 | 73710 | 58175 | 6325 | inactive |
| CG3618 | 1 | 89455 | 1.11e5 | 87950 | 80590 | 7255 | inactive |
| CG15343 | 1 | 53980 | 62990 | 62575 | 64625 | 3740 | inactive |
| Drep1 (DNA fragmentation factor-related protein 1) | 1 | 1.05e5 | 97505 | 1.71e5 | 1.41e5 | 8865 | inactive |
| Ance-3 | 1 | 1.54e5 | 1.93e5 | 1.88e5 | 1.74e5 | 16065 | inactive |
| Ance-3 | 2 | 1.38e5 | 1.57e5 | 1.68e5 | 1.78e5 | 13670 | inactive |
| CG9297 | 1 | 1.20e5 | 1.07e5 | 89015 | 71355 | 9815 | inactive |
| TM9SF3 (Transmembrane 9 superfamily protein member 3) | 1 | 2.72e5 | 2.91e5 | 3.61e5 | 2.09e5 | 9870 | inactive |
| side-II (sidestep II) | 1 | 85705 | 1.04e5 | 73595 | 71370 | 9060 | inactive |
| side-II (sidestep II) | 2 | 82880 | 64125 | 73440 | 74075 | 8415 | inactive |
| side-II (sidestep II) | 3 | 1.10e5 | 1.14e5 | 1.12e5 | 1.37e5 | 8665 | inactive |
| side-II (sidestep II) | 4 | 1.45e5 | 1.46e5 | 1.55e5 | 1.66e5 | 14375 | inactive |
| side-II (sidestep II) | 5 | 1.43e5 | 1.32e5 | 1.44e5 | 1.52e5 | 12115 | inactive |
| side-II (sidestep II) | 6 | – | – | – | – | – | inactive |
| Oamb (Octopamine receptor in mushroom bodies) | 1 | 59565 | 55745 | 85700 | 63535 | 8745 | inactive |
| Oamb (Octopamine receptor in mushroom bodies) | 2 | 1.49e5 | 1.38e5 | 1.84e5 | 1.54e5 | 11165 | inactive |
| Oamb (Octopamine receptor in mushroom bodies) | 3 | 1.67e5 | 1.47e5 | 1.85e5 | 1.91e5 | 10630 | inactive |
| CG31121 | 1 | 1.65e5 | 1.56e5 | 2.09e5 | 1.74e5 | 11315 | inactive |
| CG31121 | 2 | 1.38e5 | 1.05e5 | 1.80e5 | 1.53e5 | 11355 | inactive |
| yellow-e2 | 1 | 2.39e5 | 2.29e5 | 2.71e5 | 2.26e5 | 19975 | inactive |
| CG33299 | 1 | 1.66e5 | 1.77e5 | 2.22e5 | 2.28e5 | 13155 | inactive |
| Cyp6a8 (Cytochrome P450 6a8) | 1 | 80645 | 76740 | 69830 | 66090 | 5805 | inactive |
| escl | 1 | 3.05e5 | 2.88e5 | 2.75e5 | 2.61e5 | 20545 | inactive |
| CG11626 | 1 | 2.02e5 | 1.92e5 | 2.18e5 | 2.45e5 | 13980 | inactive |
| gt (giant) | 1 | 20880 | 26720 | 29975 | 33050 | 3745 | inactive |
| Ugt35B1 (UDP-glycosyltransferase family 35 member B1) | 1 | 1.74e5 | 1.07e5 | 1.04e5 | 90645 | 10155 | inactive |
| 7B2 | 1 | 70875 | 68860 | 70900 | 61875 | 7040 | inactive |
| CG15023 | 1 | 2.27e5 | 2.26e5 | 3.21e5 | 3.31e5 | 12095 | inactive |
| CG31928 | 1 | 2.06e5 | 2.08e5 | 2.19e5 | 2.11e5 | 20515 | inactive |
| CG15514 | 1 | 1.63e5 | 1.66e5 | 1.93e5 | 1.98e5 | 9810 | inactive |
| CG30283 | 1 | 73240 | 53690 | 46710 | 67740 | 2445 | inactive |
| Epg5 (ectopic P-granules autophagy protein 5) | 1 | 2.35e5 | 2.16e5 | 1.97e5 | 1.89e5 | 13855 | inactive |
| CG3568 | 1 | 1.54e5 | 1.33e5 | 2.35e5 | 2.41e5 | 10605 | inactive |
| CG13228 | 1 | 1.32e5 | 1.50e5 | 1.70e5 | 2.28e5 | 14330 | inactive |
| CG14634 | 1 | 1.11e5 | 1.12e5 | 1.73e5 | 1.81e5 | 8635 | inactive |
| Kdsr (3-ketodihydrosphingosine reductase) | 1 | 2.30e5 | 1.92e5 | 3.12e5 | 3.03e5 | 13445 | inactive |
| Vps26 (Vacuolar protein sorting 26) | 1 | 57025 | 68525 | 74570 | 81650 | 9800 | inactive |
| alphaTub84D (alpha-Tubulin at 84D) | 1 | 17905 | 19690 | 18495 | 17710 | 1825 | inactive |
| sand (sandman) | 1 | 2.11e5 | 1.96e5 | 2.84e5 | 2.12e5 | 18895 | inactive |
| Col4a1 (Collagen type IV alpha 1) | 1 | 1.73e5 | 1.75e5 | 1.82e5 | 1.73e5 | 19505 | inactive |
| CG33467 | 1 | 1.82e5 | 1.80e5 | 2.22e5 | 2.01e5 | 13380 | inactive |
| CG3823 | 1 | 1.37e5 | 1.64e5 | 2.41e5 | 2.37e5 | 13010 | inactive |
